Source: patent publication CN102146137A
These are yes or no findings as the source states them, for the method shown. Some entries that bind do so weakly or less than the wild type.

By UniProt entry, the sequences of proteins in these tests, tags left out. Residues count along the entry.
UniProt P05067, residues 672-713: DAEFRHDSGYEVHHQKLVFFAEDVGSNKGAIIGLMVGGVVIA

Biological target: Aβ1-42多肽 (UniProt P05067)
Experiment: ELISA screen of hybridoma clones

- binding: binds
B1: 抗Aβ1-42鼠源单抗mZ1 (antibody, IgG1, V domains shown)
VH: EVKLVESGGGLVQPGGSLRLSCATSGFTFSDYYMNWVRQPPGKALEWMAFIRNRANGYSTEYSASVRGRFTISRDNSQNILYLQMNTLRVEDSATYYCTRMGPRGFDYWGQGTTLTVSS
VL: DVQMTQSTSSLSASLGDRVTISCRASQDISNYLNWYQQKPDGTVKLLIYYTSRLHSGVPSRFSGSGSGTDYSLTISNLQQGDIATYFCQQGHSLPRTFGGGTKLEIT
